Data on four molecules can be found in paper PMC5440813.

The chains behind the UniProt entries cited, without tags or fusion partners. Where a name states a change or a piece, a line headed by the entry shows the natural chain unless it says otherwise.
UniProt P93033: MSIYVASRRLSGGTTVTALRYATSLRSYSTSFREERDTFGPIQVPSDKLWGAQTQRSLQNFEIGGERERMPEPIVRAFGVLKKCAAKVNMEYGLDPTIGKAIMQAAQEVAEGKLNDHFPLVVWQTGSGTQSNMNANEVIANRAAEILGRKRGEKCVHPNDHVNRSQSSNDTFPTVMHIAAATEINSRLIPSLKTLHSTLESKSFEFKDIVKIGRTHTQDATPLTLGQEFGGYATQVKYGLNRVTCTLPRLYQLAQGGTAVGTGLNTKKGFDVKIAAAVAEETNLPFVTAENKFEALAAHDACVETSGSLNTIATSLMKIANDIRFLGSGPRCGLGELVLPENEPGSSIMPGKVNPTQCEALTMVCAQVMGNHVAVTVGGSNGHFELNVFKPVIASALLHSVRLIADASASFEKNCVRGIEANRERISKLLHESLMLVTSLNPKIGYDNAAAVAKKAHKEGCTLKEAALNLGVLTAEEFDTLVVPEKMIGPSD
UniProt O82663: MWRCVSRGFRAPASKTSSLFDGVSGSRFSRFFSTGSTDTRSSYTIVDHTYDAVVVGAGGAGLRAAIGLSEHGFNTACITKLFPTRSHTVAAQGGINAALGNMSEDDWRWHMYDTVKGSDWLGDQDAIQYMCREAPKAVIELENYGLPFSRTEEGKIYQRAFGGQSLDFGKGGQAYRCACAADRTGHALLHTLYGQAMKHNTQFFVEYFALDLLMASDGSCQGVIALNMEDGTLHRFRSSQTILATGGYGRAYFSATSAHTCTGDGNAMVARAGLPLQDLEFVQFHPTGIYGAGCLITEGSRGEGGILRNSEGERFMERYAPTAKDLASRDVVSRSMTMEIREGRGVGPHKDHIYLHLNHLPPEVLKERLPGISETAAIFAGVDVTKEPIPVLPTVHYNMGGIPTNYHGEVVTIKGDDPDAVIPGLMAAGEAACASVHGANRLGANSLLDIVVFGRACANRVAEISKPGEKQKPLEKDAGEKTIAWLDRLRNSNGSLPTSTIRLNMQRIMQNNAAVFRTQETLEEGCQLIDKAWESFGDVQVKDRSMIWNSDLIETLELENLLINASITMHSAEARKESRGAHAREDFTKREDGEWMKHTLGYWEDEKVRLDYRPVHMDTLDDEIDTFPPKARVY

Results are given in words; binding and its absence hold for the method and conditions named. For some of these results: In cells and extracts the contact can be indirect. Some binding calls cover weakened binding; strength is not graded here.

Assay [1] addresses T1, IDH1-VYNE (Arabidopsis thaliana) (UniProt Q8LFC0).
T1 sequence: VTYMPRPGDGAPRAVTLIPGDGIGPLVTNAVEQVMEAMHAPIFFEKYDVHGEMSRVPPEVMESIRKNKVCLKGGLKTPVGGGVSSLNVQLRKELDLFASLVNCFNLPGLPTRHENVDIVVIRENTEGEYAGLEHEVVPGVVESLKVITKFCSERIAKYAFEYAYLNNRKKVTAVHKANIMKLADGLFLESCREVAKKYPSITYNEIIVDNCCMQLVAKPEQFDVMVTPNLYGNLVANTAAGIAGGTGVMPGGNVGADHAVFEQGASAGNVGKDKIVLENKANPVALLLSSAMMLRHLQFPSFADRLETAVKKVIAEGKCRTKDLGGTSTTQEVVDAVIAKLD
Description: split reporter; BiFC: SCYCE- and VYNE-tagged proteins transiently expressed in Arabidopsis mesophyll protoplasts, confocal microscopy with MitoTracker orange.

Assay [2] concerns the target T2, succinate dehydrogenase (SDH) subunit SDH2-3 (Arabidopsis thaliana) (UniProt Q9FJP9).
T2 sequence: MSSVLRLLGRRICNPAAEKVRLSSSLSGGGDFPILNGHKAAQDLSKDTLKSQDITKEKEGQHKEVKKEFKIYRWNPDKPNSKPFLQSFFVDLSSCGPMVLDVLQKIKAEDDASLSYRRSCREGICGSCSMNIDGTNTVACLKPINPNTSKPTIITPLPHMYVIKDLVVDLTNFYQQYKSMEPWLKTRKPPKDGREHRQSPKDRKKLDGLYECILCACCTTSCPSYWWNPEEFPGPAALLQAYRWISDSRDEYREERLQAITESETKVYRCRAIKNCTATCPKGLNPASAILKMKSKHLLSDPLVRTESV
As to the kind of experiment: two-hybrid; yeast two-hybrid, mating of AH109 and Y187, plates without Leu, Trp and His with 3-aminotriazole; colonies scored at 3, 5 and 8 days, positive: colonies at 3 or 5 days.

Assay [3] addresses T2, succinate dehydrogenase (SDH) subunit SDH2-3 (Arabidopsis thaliana). As to the kind of experiment: split reporter; split luciferase (split-LUC) in transfected Arabidopsis mesophyll protoplasts, 96-well plate, ViviRen substrate, relative luminescence; positive: top 10% of scores (3.7).
In assay [4] the target is T3, isocitrate dehydrogenase (IDH) subunit IDH1 (Arabidopsis thaliana) (UniProt Q8LFC0).
T3 sequence: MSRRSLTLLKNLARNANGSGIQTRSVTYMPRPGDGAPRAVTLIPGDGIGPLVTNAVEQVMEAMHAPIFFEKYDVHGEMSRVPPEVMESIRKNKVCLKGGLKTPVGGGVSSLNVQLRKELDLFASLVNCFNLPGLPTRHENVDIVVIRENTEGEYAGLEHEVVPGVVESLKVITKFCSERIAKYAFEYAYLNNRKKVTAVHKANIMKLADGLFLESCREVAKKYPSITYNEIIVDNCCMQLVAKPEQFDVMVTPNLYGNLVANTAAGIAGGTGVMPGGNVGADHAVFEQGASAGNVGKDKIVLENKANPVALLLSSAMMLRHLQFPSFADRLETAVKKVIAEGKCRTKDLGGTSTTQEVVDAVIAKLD
Description: two-hybrid; yeast two-hybrid, mating of AH109 and Y187, plates without Leu, Trp and His with 3-aminotriazole; colonies scored at 3, 5 and 8 days, positive: colonies at 3 or 5 days.

For assay [5], the target named is T3, isocitrate dehydrogenase (IDH) subunit IDH1 (Arabidopsis thaliana). Description: split reporter; split luciferase (split-LUC) in transfected Arabidopsis mesophyll protoplasts, 96-well plate, ViviRen substrate, relative luminescence; positive: top 10% of scores (3.7).
Assay [6] deals with T4, isocitrate dehydrogenase (IDH) subunit IDH5 (Arabidopsis thaliana) (UniProt Q945K7).
T4 sequence: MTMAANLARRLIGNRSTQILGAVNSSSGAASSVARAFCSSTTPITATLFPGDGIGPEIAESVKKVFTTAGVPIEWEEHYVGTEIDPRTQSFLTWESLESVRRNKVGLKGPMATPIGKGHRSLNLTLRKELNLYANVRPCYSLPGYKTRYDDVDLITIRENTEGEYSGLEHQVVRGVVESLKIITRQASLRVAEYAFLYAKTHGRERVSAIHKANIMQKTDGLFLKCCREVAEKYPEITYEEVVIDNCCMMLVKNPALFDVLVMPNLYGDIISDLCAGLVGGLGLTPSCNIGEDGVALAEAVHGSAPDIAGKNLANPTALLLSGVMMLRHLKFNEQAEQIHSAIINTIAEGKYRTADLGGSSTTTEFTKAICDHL
As to the kind of experiment: two-hybrid; yeast two-hybrid, mating of AH109 and Y187, plates without Leu, Trp and His with 3-aminotriazole; colonies scored at 3, 5 and 8 days, positive: colonies at 3 or 5 days.

The target in assay [7] is T4, isocitrate dehydrogenase (IDH) subunit IDH5 (Arabidopsis thaliana). As to the kind of experiment: split reporter; split luciferase (split-LUC) in transfected Arabidopsis mesophyll protoplasts, 96-well plate, ViviRen substrate, relative luminescence; positive: top 10% of scores (3.7).

Consider “FUM1-SCYCE (from UniProt P93033 29-492) (enzyme)”, for which, in assay [1], the binding result is given as “no binding”. Take “succinate dehydrogenase (SDH) subunit SDH1-1 (from UniProt O82663 1-634) (enzyme)”: the binding result in assay [2] and in assay [3] was “binds” each time.

For “fumarase (FUM) 1 (from UniProt P93033 1-492) (enzyme)”, the binding entry in assay [4] and in assay [5] was “no binding” each time.

B1: isocitrate dehydrogenase (IDH) subunit IDH2 (protein, UniProt P93032 1-367)
chain: MSRQSFSLLKNLRSIASGSKIQTRSVTYMPRPGDGKPRPVTLIPGDGVGPLVTNAVQQVMEAMHAPVYFEPFEVHGDMKSLPEGLLESIKKNKVCLKGGLKTPVGGGVSSLNVNLRKELDLFASLVNCFNLPGLASRHENVDIVVIRENTEGEYAGLEHEVVPGVVESLKVITKFCSERIAKYAFEYAYLNNRKKVTAVHKANIMKLADGLFLESCQEVAKKYPSIAYNEIIVDNCCMQLVARPEQFDVMVTPNLYGNLVANTAAGIAGGTGVMPGGNVGAEYAVFEQGASAGNVGKDTTEEQKNANPVALLLSSAMMLRHLQFPSFADRLETAVKRVIAEGNCRTEDLGGNSTTQEVVDAVIANLD
B1: the binding result in assay [6] and in assay [7] was “binds” in each case.
